Source: US20150197561A1 (ONCOMED PHARMACEUTICALS, published 2015)
No constants are given. Whether binding was seen depends on the method and setting. Some binding calls cover weakened binding; strength is not graded here.

Chains of the proteins cited; added tags and fusions are not shown. Lines headed by an entry give the natural chain unless they say otherwise; changes in a name come on top.
UniProt P78504: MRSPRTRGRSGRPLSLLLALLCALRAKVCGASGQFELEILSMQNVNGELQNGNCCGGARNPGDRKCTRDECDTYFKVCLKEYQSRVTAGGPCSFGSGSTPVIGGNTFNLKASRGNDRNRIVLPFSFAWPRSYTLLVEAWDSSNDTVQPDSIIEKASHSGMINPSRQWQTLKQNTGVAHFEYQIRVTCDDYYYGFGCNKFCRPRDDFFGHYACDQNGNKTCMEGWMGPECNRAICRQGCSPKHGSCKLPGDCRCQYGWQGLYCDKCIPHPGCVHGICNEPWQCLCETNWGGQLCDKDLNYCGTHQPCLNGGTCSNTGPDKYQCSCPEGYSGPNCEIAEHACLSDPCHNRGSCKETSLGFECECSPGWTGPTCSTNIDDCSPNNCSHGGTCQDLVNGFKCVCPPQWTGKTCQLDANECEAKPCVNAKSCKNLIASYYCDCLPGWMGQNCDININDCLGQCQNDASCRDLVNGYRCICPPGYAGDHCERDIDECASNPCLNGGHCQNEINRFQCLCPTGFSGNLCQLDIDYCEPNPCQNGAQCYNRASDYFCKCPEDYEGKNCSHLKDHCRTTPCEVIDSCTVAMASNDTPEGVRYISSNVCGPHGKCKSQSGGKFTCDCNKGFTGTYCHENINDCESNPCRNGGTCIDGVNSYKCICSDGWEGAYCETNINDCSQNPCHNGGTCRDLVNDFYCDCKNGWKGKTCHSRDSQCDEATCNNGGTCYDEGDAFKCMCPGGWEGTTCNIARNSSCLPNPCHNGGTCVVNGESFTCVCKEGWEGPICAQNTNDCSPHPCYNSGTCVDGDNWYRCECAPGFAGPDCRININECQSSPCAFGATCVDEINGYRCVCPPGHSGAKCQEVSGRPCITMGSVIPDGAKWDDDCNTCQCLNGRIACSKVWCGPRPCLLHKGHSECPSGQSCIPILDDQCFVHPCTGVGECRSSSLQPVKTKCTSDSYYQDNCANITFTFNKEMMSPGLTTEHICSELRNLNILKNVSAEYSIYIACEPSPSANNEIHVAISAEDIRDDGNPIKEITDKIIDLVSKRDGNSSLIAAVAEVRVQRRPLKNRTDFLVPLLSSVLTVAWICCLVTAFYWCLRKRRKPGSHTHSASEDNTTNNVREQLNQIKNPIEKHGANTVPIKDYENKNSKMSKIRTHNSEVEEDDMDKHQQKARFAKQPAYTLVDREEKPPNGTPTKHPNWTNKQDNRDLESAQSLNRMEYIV

Experiments:
[1] = molecular target: recombinant monovalent human Jagged1 protein (human) (UniProt P78504); assay: SPR, antibody immobilised on CM5 chip, monovalent human Jagged1 flowed over
[2] = molecular target: recombinant monovalent human Jagged1 protein (human) (UniProt P78504); assay: Biacore, 64R1B immobilised on a CM5 chip, hJag1His injected over it (y axis has no printed unit)
[3] = molecular target: recombinant monovalent human Jagged1 protein (human) (UniProt P78504); assay: Biacore epitope competition, hJag1His captured on the 64R7 chip, 64R1B injected as solution antibody (100 nM per paragraph 236)
[4] = molecular target: recombinant monovalent human Jagged1 protein (human) (UniProt P78504); assay: Biacore epitope competition, hJag1His captured on the 64M51 chip, 64R1B injected as solution antibody (100 nM per paragraph 236)
[5] = molecular target: recombinant monovalent human Jagged1 protein (human) (UniProt P78504); assay: Biacore, 64M51 immobilised on a CM5 chip, hJag1His injected over it (y axis has no printed unit)
[6] = molecular target: recombinant monovalent human Jagged1 protein (human) (UniProt P78504); assay: Biacore epitope competition, hJag1His captured on the 64R7 chip, 64M51 injected as solution antibody (100 nM per paragraph 236)
[7] = molecular target: recombinant monovalent human Jagged1 protein (human) (UniProt P78504); assay: Biacore epitope competition, hJag1His captured on the 64R1B chip, 64M51 injected as solution antibody (100 nM per paragraph 236)

Measured: binding

B1: 64R1B IgG2 antibody (antibody, V domains shown)
VH: QVQLQESGPGLVKPSGTLSLTCTVSGDSISSSNWWSWVRQPPGQGLEWIGEIFHGENTNYNPSLKSRVTISVDKSKNQISLNLTSATAADTAVYYCARNPGIGAAKFDSWGQGTLVTVSS
VL: DIVMTQTPLSLSVTPGQPASISCKSSQSLLHSDGKTYLYWYLQKPGQPPQLLIYEVSNRFSGVPDRFSGSGSGTDFTLKISRVEAEDVGVYYCMQHIDFPFTFGQGTKLEIKR
notes: Human IgG2 / kappa, expressed in CHO cells; also called antibody 64R1B; ATCC PTA-10469
binds: [1] | [2] | [3] | [4]

B2: antibody 64M51 (antibody, mouse IgG1, kappa, V domains shown)
VH: QVQLKQSGAELVRPGTSVKLSCKTSGYIFTSYWIHWVKQRSGQGLEWIARIYPGIGSTYYNEKFKDKATLTADKSSSTAYMQLSSLKSEDSAVYFCAKNGGFFDYWGQGTTLTVSS
VL: DIVLTQSPASLAVSLGQRATISCRASESVDSYGNSFMHWYQQKPGQPPKLLIYRASNLESGIPARFSGSGSRTDFTLTINPVEADDVATYYCQQSNEDPWTFGGGTKLEIKR
notes: Mouse hybridoma monoclonal raised against mouse Jagged1 ECD-His; also called anti-Jagged 64M51; ATCC PTA-10468
binds: [1] | [5] | [6] | [7]
